From US4943646A, “Gallium complexes and solvent extraction of gallium” (Monsanto Company, priority 1987, dated 1990) come the findings set out here.

A short description of data set [1]: Gallium extraction with extractant and modifier (Example 14).
Data set [2] can be described thus: Extraction from GaCl3 and caustic stripping of gallium (Example 20).
Data set [3] in a line: Minimum pH at which 50% of Fe (III) was extractible (Table 11).
Data set [4] in a line: Stripping of Fe (III) from hydroxamic acids with sulfuric acid (Table 10).
The nature of data set [5]: Stirred-beaker extraction, 2% H2SO4 wash and 30% H2SO4 strip of gallium from phosphate treater dust leachate (Examples 1-7). The conditions noted are these: for Ga Yield / Ga Strip / Ga Extraction: Table 3 summary; for Ga Strip: 30% H2SO4; for Ga Strip / Ga Extraction: time in parentheses in table; for Ga removed in washing: three washes with 2% (dilute) sulfuric acid.
Data set [6] is described as follows: Same extraction/wash/strip cycle, iron (Examples 1-7). The conditions noted are these: for Fe stripping efficiency: 30% sulfuric acid; for Fe extracted: aqueous solution after extraction; for Fe concentration in H2SO4 stripping solution / Fe Strip: 30% H2SO4; for Fe Extraction / Fe Yield / Fe Strip: Table 3 summary.
The nature of data set [7]: Same extraction/wash/strip cycle, zinc (Examples 1-6).
Data set [8] can be described thus: Same extraction/wash/strip cycle, aluminum (Examples 1-6).
The nature of data set [9]: Comparative extraction and stripping, Fe (Example 11).
A short description of data set [10]: Comparative extraction and stripping, Al (Example 11).
The nature of data set [11]: Comparative extraction and stripping, Ga (Example 11).
A short description of data set [12]: Gallium extraction with an N-alkyl hydroxamic acid as modifier (Example 15). The conditions noted are these: 40% extractant.
Data set [13] can be described thus: Extraction with 40% N-methyl naphthenohydroxamic acid and different modifiers, Ga (Example 16). The following applies: modifier (20%) with 40% N-methyl naphthenohydroxamic acid; pH 0.99, 60 °C, 10 min.
The mark [14] stands for this setting: modifier nonylphenol, percentages by line, 60 °C, pH 1.
Where [15] appears, read: 30% H2SO4, one hour (60 minutes).

Values joined by “and” are separate entries in the source; they are usually repeats but may differ in a detail not shown here. Equal entries are not always repeated.

Consider N-methyl isostearo-hydroxamic acid, for which the “% EGa” value is listed as 72.2% in data set [1] (modifier N-methyl-hexano HA 19.8%); 27.2% in data set [1] (modifier Sterox ND 19.8%); 90.4% in data set [1] (modifier dodecylphenol 20.1%); 58.0% in data set [1] (modifier neotridecano acid 19.8%); 91.2% in data set [1] (setting [14]).
For the compound `CCCCCCCCCCCCCCCCCC(=O)N(C)O` [N-methyl stearohydroxamic acid], the Ga extracted entry in data set [2] (after NaOH to pH 2.24) is “approximately 98.6%”; in data set [2] (before NaOH addition, pH fell to 0.52, 58.5 °C), “about 49%”. For the same compound, the “Ga in aqueous phase” value is listed as 10,825 ppm in [2] (first NaOH strip) and 5090 ppm in data set [2] (second strip, 1.00M NaOH, 54 min, 60.0 °C). In addition, the “Ga in organic phase” value in [2] (first NaOH strip) amounted to 5112 ppm; in data set [2] (second strip, 1.00M NaOH) it was 813 ppm. In addition, the Ga stripped in data set [2] (first NaOH strip) was 52.9%; in data set [2] (second contact, 1.00M NaOH), 85.0%.
On to neotridecanohydroxamic acid, for which, in data set [3], the “pH1/2 (minimum pH at which 50% of Fe (III) was extractible)” value is given as under 0. Besides, the “% STRIPPED (Fe (III))” value in data set [4] (strip H2SO4 150 g/l) is 36%.
With `CCCCCCCCCCc1ccc(C(=O)N(C)O)cc1` [N-methyl-p-n-decylphenylhydroxamic acid], the “overall yield (recovery) of Ga from extraction, washing and stripping” value (shortened to “overall yield (recovery) of Ga”) in [5] turned out to be 37%. The “Ga level in combined wash solution” value in data set [5] (2% sulfuric acid washes, 65.9 ml) is listed as 0.8 ppm. The Ga stripped in data set [5] (30% H2SO4, 5 minutes) is 6%; in data set [5] (30% H2SO4, 15 minutes), 24%; in data set [5] (30% H2SO4, 30 minutes), 37%; in [5] (setting [15]), 37%. The Ga extracted in data set [5] (5 minutes) came to 87%; in data set [5] (10 minutes) it was 99%. For the same compound, the “overall yield of Fe” value in [6] was found to be 4%. The Fe stripping efficiency in data set [6] is on record as 6%. In data set [6], this compound gave a Fe extracted of 81%.
Turning to N-ethylnaphthenohydroxamic acid, in data set [5], the “overall yield (recovery) of Ga” value was found to be 42%; the “Ga Yield” value was 42%; the “Ga Strip” value was found to be 71%; the “Ga Extraction” value is reported as 61%. In addition, in data set [5], the “Ga removed in washing” value is on record as 2%. Besides, in data set [5] (30% H2SO4, 5 minutes), the Ga stripped worked out at 68%. Besides, in data set [5] (30% H2SO4, 20 minutes), the Ga stripped is on record as 79%. Moreover, the Ga stripped in data set [5] (30% H2SO4, 25 minutes) was determined as 71%. In data set [6], the “Fe concentration in aqueous solution after extraction” value was determined as 1900 ppm, the “overall yield of Fe” value is 3%, the “Fe concentration in H2SO4 stripping solution” value is ~ 84 ppm and the Fe stripping efficiency is recorded as ~ 7%. Besides, in data set [6], the “Fe Extraction” value came to 39%, the “Fe Yield” value is given as 3%, the “Fe Strip” value is given as 7% and the Fe extracted worked out at 39%. In data set [6] (Table 2, 2% sulfuric acid), the “Fe concentration in washings” value was determined as 4.3 ppm and the “Fe stripping % in washings” value is recorded as “.36%”. Besides, in data set [7], the Zn extracted is at most 1% and the “overall yield of Zn” value worked out at 0.002%. Also, the “Zn concentration in aqueous solution after extraction” value in data set [7] (Table 2) is reported as ≥ 53,222 ppm. In data set [7] (Table 2, 2% sulfuric acid), the “Zn concentration in washings” value was 226 ppm and the “Zn stripping % in washings” value was 99.6%. For the same compound, in data set [7] (Table 2, 30% H2SO4), the “Zn concentration in H2SO4 stripping solution” value is 1 ppm and the Zn stripping % was determined as 0.4%. For the same compound, in [8], the Al extracted turned out to be 10% and the “overall yield of Al” value was 0.1%. Besides, the “Al concentration in aqueous solution after extraction” value in data set [8] (Table 2) is 2020 ppm. In [8] (Table 2, 2% sulfuric acid), the “Al concentration in washings” value was 11.3 ppm and the “Al stripping % in washings” value worked out at 85%. Further, in data set [8] (Table 2, 30% H2SO4), the Al stripping % turned out to be 17%.
As for “naphthenohydroxamic acid [reference compound]”, the Ga stripped in [5] (30% H2SO4, 5 minutes) was found to be 34%. Further, the Ga stripped in data set [5] (30% H2SO4, 15 minutes) was found to be 48%. Further, the Ga stripped in data set [5] (30% H2SO4, 30 minutes) stood at 58%. In addition, the Ga stripped in [5] (30% H2SO4, 1.25 hour) is recorded as 77%. The compound further registered a Ga stripped in [5] (30% H2SO4, 1.5 hour) of 78%. This compound returned a Ga stripped in [5] (setting [15]) of 69%. The Ga extracted in data set [5] (5 minutes) was 99%. For the same compound, in data set [5], the “Ga Yield” value was found to be 78%, the “Ga Strip” value was determined as 78%, the “Ga Extraction” value was found to be 99% and the “Ga removed in washing” value is on record as “no Ga was removed in the washings”. Further, in data set [9] (Table 8), the “% stripped in 18 hours, Fe” value stood at 79.3%. In data set [9] (feed pH 1.49), the “% extrac. in 15 min., Fe” value is given as 100%. Further, in [6], the “overall yield of Fe” value is 10.3%, the Fe stripping efficiency is 29%, the “Fe Extraction” value came out at 35% and the “Fe Yield” value is on record as 10.3%. Moreover, in data set [6], the “Fe Strip” value is recorded as 29% and the Fe extracted is 35%. The compound further had a Zn extracted in data set [7] of 5%. Besides, in [10] (Table 8), the “% stripped in 18 hours, Al” value is ~ 0%. In addition, the “% extrac. in 15 min., Al” value in data set [10] (feed pH 1.49) is listed as 65.2%. For the same compound, in [11] (2M H2SO4/2M H3PO4, 70 minutes), the “Ga removed from the organic medium by stripping” value is given as 88.5%. Further, the “additional Ga removed from the organic medium” value in [11] (10N H2SO4 added, additional 90.2 hours) amounted to 9.5%. Moreover, the “% stripped in 18 hours, Ga” value in data set [11] (Table 8) is given as 88.5%. In addition, the “% extrac. in 15 min., Ga” value in data set [11] (feed pH 1.49) was 100%. The same compound gave an Al extracted in data set [8] of 4%.
As to N-n-propylnaphthenohydroxamic acid, the Ga stripped in data set [5] (30% H2SO4, 5 minutes) amounted to 77%. This compound also had a Ga stripped in data set [5] (30% H2SO4, 15 minutes) of 74%. This compound also returned a Ga extracted in data set [5] (5 minutes) of 8%. Further, the Ga extracted in data set [5] (10 minutes) turned out to be 25%. Besides, the Ga extracted in data set [5] (20 minutes) came to 54%. Further, the Ga extracted in data set [5] (25 minutes) stood at 60%. In [5] (35 minutes), this compound gave a Ga extracted of 65%. In [5], the “Ga Yield” value worked out at 50%, the “Ga Strip” value is 77%, the “Ga Extraction” value is 65% and the “Ga removed in washing” value came to 3%. Also, in [6], the “Fe Extraction” value is reported as 3%, the “Fe Yield” value was determined as 9%, the “Fe Strip” value worked out at 100% and the Fe extracted came out at 3%. For the same compound, the Zn extracted in [7] was found to be 5%. Further, the Al extracted in [8] was determined as 8%.
On to `CCCCCCCCCC(=O)N(C)O` [N-methyldecanohydroxamic acid], for which, in data set [3], the “pH1/2 (minimum pH at which 50% of Fe (III) was extractible)” value came out at 1.08. The “% STRIPPED (Fe (III))” value in data set [4] (strip H2SO4 100 g/l) is over 98%. Further, in data set [12] (no modifier, pH 1.02, 60 °C), the “% EGa” value worked out at 63.0%.
Turning to `C=CC(CC(C)(C)CC(C)(C)C)c1ccc2cccnc2c1O` (stereo not shown) [Kelex-100], in data set [13], the “% Extracted Ga” value is given as 97%.
In the case of N-methylneodecanohydroxamic acid, in data set [5], the “overall yield (recovery) of Ga” value stood at 16%; the “Ga Yield” value was 16%; the “Ga Strip” value is given as 100%; the “Ga Extraction” value worked out at 16%. Further, the Ga stripped in [5] (30% H2SO4, 5 minutes) was 84%. Moreover, the Ga stripped result in data set [5] (30% H2SO4, 15 minutes) is listed as “completed in 15 minutes”. For the same compound, the Ga extracted in [5] (5 minutes) turned out to be 3%. The compound also displayed a Ga extracted in [5] (1.5 hours) of 16%. Also, in data set [6], the “overall yield of Fe” value is listed as 0.2%, the “Fe Extraction” value stood at 2% and the “Fe Yield” value turned out to be 2%. In data set [7], the “overall yield of Zn” value is recorded as 0.03%. The “overall yield of Al” value in data set [8] is given as “near zero”.
For the compound `CCCCCCN(O)C(=O)CCCC` [N-hexylpentano HA], the “% STRIPPED (Fe (III))” value in data set [4] (strip H2SO4 100 g/l) was over 98%.
Take `CCCCCCCCCC(=O)N(O)CCCCCC` [N-hexyldecanohydroxamic acid]: the “pH1/2 (minimum pH at which 50% of Fe (III) was extractible)” value in data set [3] was found to be 3.0. The “% STRIPPED (Fe (III))” value in [4] (strip H2SO4 1.5 g/l) is over 98%.
Regarding `CCCCCCCC(=O)N(C)O` [N-methyloctano HA], in data set [4] (strip H2SO4 150 g/l), the “% STRIPPED (Fe (III))” value turned out to be 94%.
As to `CCCCCCCCCC(=O)N(O)C(C)C` [N-isopropyldecanohydroxamic acid], the “pH1/2 (minimum pH at which 50% of Fe (III) was extractible)” value in [3] is recorded as 2.90. For the same compound, in data set [4] (strip H2SO4 25 g/l), the “% STRIPPED (Fe (III))” value amounted to 98%.
Consider N-methyl isostearohydroxamic acid, for which the “% EGa” value in data set [1] (modifier nonylphenol 23.5% & 20% neotridecano acid) is 93.7%; in data set [1] (setting [14]) it was 92.6% and 95.5%; in [1] (modifier printed as ditto mark under none, 20%), 92.6%; in [1] (no modifier, 60 °C, pH 1, 10 min), 70%; in data set [12] (modifier N-methyldecanohydroxamic acid 20%) it was 68.6%; in [12] (modifier N-methyldodecyl-hydroxamic acid 20%), 50.1%. The “% EGa” value in data set [12] (no modifier, pH 1.02, 60 °C) came out at 52.1%.
Regarding “neodecanohydroxamic acid [reference compound]”, the Ga stripped in data set [5] (30% H2SO4, three hours) was found to be 4%. The Ga extracted in data set [5] (5 minutes) was 99%. Also, in data set [5], the “Ga Yield” value turned out to be 4%, the “Ga Strip” value was 4%, the “Ga Extraction” value turned out to be 99% and the “Ga removed in washing” value is “about 1%”. In data set [6], the “Fe concentration in aqueous solution after extraction” value was 480 ppm, the “Fe concentration in H2SO4 stripping solution” value is 4.4 ppm, the Fe stripping efficiency is listed as 0.2% and the “Fe Extraction” value is recorded as 79%. In data set [6], the “Fe Yield” value is 0.2%, the “Fe Strip” value is reported as 0.2% and the Fe extracted is reported as 79%.
N-methyl naphtheno hydroxamic acid: in data set [1] (setting [14]), the “% EGa” value is 84.4%.
